Among the data in paper PMC3291577 are binding values, retold here.

Sequences of proteins named here, by UniProt entry; tags and fusion partners are left off.
UniProt P25439: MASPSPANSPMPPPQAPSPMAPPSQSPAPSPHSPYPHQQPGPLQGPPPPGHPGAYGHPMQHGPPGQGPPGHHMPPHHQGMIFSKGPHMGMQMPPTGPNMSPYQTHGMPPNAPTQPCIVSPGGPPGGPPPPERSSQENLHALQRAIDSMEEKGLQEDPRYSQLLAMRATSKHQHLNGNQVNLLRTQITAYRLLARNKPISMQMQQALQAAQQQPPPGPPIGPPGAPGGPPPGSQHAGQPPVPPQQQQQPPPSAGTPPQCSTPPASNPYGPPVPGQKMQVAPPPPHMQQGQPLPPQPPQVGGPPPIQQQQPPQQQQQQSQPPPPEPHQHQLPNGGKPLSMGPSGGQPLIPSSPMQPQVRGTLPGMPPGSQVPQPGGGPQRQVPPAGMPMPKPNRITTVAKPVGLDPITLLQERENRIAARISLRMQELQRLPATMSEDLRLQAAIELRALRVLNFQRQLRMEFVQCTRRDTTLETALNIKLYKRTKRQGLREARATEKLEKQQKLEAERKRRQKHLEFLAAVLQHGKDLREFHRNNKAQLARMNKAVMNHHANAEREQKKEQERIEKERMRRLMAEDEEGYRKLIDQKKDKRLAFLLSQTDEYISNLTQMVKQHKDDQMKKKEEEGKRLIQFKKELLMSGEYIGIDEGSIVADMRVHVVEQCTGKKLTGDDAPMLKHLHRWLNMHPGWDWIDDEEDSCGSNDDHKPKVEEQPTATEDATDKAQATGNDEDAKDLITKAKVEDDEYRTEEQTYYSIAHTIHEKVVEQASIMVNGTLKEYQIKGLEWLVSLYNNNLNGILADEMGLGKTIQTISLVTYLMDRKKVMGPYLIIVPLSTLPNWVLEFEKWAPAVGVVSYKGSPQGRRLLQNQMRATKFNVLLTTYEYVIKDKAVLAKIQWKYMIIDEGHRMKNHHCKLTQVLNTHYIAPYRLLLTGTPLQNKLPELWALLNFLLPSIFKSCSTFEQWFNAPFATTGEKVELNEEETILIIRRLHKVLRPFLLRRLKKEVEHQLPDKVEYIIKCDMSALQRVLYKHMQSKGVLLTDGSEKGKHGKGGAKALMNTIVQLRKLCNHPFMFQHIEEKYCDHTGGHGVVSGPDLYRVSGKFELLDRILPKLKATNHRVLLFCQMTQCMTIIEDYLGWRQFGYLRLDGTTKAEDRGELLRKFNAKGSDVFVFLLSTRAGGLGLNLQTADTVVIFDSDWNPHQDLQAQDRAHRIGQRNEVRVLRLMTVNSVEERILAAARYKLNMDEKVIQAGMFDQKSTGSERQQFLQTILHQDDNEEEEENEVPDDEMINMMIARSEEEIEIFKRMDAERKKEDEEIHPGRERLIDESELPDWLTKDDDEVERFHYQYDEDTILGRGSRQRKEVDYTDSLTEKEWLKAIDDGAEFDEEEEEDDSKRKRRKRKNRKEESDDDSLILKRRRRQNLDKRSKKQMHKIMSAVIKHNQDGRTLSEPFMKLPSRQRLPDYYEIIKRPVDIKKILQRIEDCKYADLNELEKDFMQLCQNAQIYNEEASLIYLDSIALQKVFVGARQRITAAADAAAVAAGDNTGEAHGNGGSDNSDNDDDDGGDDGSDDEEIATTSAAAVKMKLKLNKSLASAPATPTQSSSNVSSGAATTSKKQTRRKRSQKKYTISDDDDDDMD

Experiment [1] addresses T1, tagged Akirin (Drosophila melanogaster) (UniProt Q9VS59).
T1 sequence: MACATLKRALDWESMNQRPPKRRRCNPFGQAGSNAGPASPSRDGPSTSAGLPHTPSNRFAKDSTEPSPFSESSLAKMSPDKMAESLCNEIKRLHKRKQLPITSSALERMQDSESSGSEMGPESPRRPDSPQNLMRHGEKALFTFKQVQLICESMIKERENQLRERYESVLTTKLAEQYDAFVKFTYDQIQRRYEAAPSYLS
Put plainly: co-IP; embryonic lysates with tagged Akirin; data not shown.

The target of experiment [2] is T2, GST-Twist fusion protein (Drosophila melanogaster) (UniProt P10627).
T2 sequence: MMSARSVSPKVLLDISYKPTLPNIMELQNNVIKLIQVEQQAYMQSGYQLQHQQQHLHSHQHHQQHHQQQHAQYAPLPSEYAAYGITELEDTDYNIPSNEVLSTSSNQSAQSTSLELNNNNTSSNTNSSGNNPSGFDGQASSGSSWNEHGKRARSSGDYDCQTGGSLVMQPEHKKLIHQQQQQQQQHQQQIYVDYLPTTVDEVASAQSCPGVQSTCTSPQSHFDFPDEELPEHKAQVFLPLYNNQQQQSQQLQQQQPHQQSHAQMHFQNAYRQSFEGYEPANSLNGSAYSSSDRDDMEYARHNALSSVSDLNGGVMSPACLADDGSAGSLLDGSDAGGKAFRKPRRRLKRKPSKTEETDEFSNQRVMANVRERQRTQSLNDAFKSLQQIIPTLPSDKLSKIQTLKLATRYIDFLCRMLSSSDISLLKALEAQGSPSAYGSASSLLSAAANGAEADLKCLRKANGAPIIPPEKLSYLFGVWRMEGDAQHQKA
Put plainly: pull-down; GST or GST-Twist on Glutathione Sepharose 4B beads in ZTx buffer (25 mM HEPES pH 7.5, 12.5 mM MgCl2, 20% glycerol, 0.1% Triton-X 100, 150 mM KCl) + 0.25 mg/ml BSA, 1 mM DTT; 35S-labelled in vitro translated proteins, 1 hour at room temperature; washed in NETTx buffer; autoradiography; only the target purified.

The target in experiment [3] is Brahma core subunit (Drosophila melanogaster (endogenous in embryos)) (UniProt P25439). The experiment in a line: co-IP; anti-Brahma antibody, protein A-agarose, total nondenatured yw embryo extracts at 3 mg/mL in IP buffer (10 mM HEPES pH 8, 100 mM NaCl, 10% glycerol, 0.05% Tween-20), 1 hour at 4°C.

These are yes or no findings as the source states them, for the method shown. In cells and extracts the contact can be indirect. Some entries that bind do so weakly or less than the wild type. For some of these results: Where a sequence is shown, tags or fusion partners need not be part of it.

For the molecule “Brahma core subunit (from UniProt P25439 1-1638)”, the binding entry in experiment [1] was “binds weakly”.

B1: in vitro translated Daughterless (35S-methionine-labelled) (protein, UniProt P11420 1-710)
chain: MATSDDEPMHLYEVFQNCFNKIANKQPTGTVGADRGGGGGYHSPYGSLGVENGMYPSDFNSMHDTVNGGNNRYANASTVDQYFDSAAAGSGGAWCQPQMSSANSYMGQSAYQNSGPLSGHSIDQQQQQVHQADGLGMGGGGGGGVGADGMHCPVTTGLPPISSFRPTSGGIGGPGAGQQAPVNVNVNPPAVFNSPQAHNHNHTVQAQHSALSTAGPLGHHSLNHTPHAHSHTLPLPHALPHGHTLPHPHHSQQNSPAVQSSDAFSGAGASVKVAGAGNSSAAALRQQMYMPADQSISSFGSNPSTPVNSPPPLTQSVVGGGGEPSVSGGSGWGHSVLNGGPSSSYASEMVPVSSLHTMASVFQGVRMEERLDDALNVLRNHCEPEMLAGVNQSLASIDNIDALTSFVPNSPSHLGSGGNSGSVSNTSNAALVHEVLALGAAAAAGTSGQSVGGAGSLASLKLDRSASTSLPKQTKKRKEHTAISNSVPAGVSTTSSLTSLDISDTKPTSSIESSNSGLQQHSQGKGTKRPRRYCSSADEDDDAEPAVKAIREKERRQANNARERIRIRDINEALKELGRMCMTHLKSDKPQTKLGILNMAVEVIMTLEQQVRERNLNPKAACLKRREEEKAEDGPKLSAQHHMIPQPQQVGGTPGSSYHSQPAQLVPPSSQTISTMTISLPVNQANNGLPPHLQQQQQQQSQLGHAQLPQ
modifications: 35S-methionine-labelled
In the case of B1, the binding result in experiment [2] is given as “binds”.

B2: Twist (endogenous, embryonic extract) (protein, UniProt P10627 1-490)
chain: MMSARSVSPKVLLDISYKPTLPNIMELQNNVIKLIQVEQQAYMQSGYQLQHQQQHLHSHQHHQQHHQQQHAQYAPLPSEYAAYGITELEDTDYNIPSNEVLSTSSNQSAQSTSLELNNNNTSSNTNSSGNNPSGFDGQASSGSSWNEHGKRARSSGDYDCQTGGSLVMQPEHKKLIHQQQQQQQQHQQQIYVDYLPTTVDEVASAQSCPGVQSTCTSPQSHFDFPDEELPEHKAQVFLPLYNNQQQQSQQLQQQQPHQQSHAQMHFQNAYRQSFEGYEPANSLNGSAYSSSDRDDMEYARHNALSSVSDLNGGVMSPACLADDGSAGSLLDGSDAGGKAFRKPRRRLKRKPSKTEETDEFSNQRVMANVRERQRTQSLNDAFKSLQQIIPTLPSDKLSKIQTLKLATRYIDFLCRMLSSSDISLLKALEAQGSPSAYGSASSLLSAAANGAEADLKCLRKANGAPIIPPEKLSYLFGVWRMEGDAQHQKA
On to B2, for which the binding result in experiment [3] is “binds”.

B3: in vitro translated Akirin (35S-methionine-labelled) (protein, UniProt Q9VS59 1-201)
chain: MACATLKRALDWESMNQRPPKRRRCNPFGQAGSNAGPASPSRDGPSTSAGLPHTPSNRFAKDSTEPSPFSESSLAKMSPDKMAESLCNEIKRLHKRKQLPITSSALERMQDSESSGSEMGPESPRRPDSPQNLMRHGEKALFTFKQVQLICESMIKERENQLRERYESVLTTKLAEQYDAFVKFTYDQIQRRYEAAPSYLS
modifications: 35S-methionine-labelled
In the case of B3, the binding entry in experiment [2] was “binds”.
